Results taken from PMC3130009, “Trichinella spiralis Paramyosin Binds to C8 and C9 and Protects the Tissue-Dwelling Nematode from Being Attacked by Host Complement” (PLoS Neglected Tropical Diseases, 2011).

By UniProt entry, the sequences of proteins in these tests, tags left out. Where a name states a change or a piece, a line headed by the entry shows the natural chain unless it says otherwise. Residues count along the entry.
UniProt P02748, residues 22-559: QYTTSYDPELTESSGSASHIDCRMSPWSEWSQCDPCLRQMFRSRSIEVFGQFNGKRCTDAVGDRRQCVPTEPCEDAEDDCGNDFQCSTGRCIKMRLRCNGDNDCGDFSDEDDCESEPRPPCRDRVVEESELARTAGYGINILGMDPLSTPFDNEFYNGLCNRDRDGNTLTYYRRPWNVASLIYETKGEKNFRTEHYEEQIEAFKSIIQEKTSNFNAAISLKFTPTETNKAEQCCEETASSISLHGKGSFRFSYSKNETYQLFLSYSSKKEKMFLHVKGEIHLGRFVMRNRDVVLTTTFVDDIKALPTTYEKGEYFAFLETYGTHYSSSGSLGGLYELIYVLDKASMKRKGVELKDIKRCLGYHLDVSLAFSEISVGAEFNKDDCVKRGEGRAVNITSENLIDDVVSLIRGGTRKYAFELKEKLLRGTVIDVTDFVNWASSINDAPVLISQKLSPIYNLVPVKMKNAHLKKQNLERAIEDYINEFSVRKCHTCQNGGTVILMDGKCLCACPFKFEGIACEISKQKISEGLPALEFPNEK
UniProt P07358, residues 55-591: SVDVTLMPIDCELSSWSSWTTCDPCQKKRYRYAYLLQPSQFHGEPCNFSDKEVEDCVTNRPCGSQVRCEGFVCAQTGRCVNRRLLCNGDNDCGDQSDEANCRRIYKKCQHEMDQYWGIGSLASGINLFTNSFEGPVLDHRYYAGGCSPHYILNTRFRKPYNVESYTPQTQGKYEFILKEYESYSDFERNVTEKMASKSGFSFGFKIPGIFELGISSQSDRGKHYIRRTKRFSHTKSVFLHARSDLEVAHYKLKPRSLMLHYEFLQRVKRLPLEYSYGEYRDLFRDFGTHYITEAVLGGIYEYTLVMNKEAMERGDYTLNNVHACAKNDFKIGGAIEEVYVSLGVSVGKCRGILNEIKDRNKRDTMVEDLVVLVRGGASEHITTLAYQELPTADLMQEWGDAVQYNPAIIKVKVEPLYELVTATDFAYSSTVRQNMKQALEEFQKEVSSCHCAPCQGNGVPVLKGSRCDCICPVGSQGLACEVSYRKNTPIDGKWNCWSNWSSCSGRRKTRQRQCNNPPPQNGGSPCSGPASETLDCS
UniProt P07357, residues 31-584: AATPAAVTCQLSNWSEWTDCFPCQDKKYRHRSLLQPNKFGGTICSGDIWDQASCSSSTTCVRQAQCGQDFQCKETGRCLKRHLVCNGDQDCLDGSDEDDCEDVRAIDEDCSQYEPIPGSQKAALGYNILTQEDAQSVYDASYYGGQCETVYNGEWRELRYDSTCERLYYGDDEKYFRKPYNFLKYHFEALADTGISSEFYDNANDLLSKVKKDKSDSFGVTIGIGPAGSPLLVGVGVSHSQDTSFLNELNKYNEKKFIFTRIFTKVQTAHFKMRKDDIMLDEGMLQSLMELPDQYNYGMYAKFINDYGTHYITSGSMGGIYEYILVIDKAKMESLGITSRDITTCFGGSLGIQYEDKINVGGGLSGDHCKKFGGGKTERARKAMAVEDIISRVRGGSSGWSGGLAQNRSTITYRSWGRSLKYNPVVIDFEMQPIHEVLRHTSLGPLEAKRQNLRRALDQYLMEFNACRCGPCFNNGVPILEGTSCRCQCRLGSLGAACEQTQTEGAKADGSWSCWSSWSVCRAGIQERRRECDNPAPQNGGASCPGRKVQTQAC
UniProt A3RLX8: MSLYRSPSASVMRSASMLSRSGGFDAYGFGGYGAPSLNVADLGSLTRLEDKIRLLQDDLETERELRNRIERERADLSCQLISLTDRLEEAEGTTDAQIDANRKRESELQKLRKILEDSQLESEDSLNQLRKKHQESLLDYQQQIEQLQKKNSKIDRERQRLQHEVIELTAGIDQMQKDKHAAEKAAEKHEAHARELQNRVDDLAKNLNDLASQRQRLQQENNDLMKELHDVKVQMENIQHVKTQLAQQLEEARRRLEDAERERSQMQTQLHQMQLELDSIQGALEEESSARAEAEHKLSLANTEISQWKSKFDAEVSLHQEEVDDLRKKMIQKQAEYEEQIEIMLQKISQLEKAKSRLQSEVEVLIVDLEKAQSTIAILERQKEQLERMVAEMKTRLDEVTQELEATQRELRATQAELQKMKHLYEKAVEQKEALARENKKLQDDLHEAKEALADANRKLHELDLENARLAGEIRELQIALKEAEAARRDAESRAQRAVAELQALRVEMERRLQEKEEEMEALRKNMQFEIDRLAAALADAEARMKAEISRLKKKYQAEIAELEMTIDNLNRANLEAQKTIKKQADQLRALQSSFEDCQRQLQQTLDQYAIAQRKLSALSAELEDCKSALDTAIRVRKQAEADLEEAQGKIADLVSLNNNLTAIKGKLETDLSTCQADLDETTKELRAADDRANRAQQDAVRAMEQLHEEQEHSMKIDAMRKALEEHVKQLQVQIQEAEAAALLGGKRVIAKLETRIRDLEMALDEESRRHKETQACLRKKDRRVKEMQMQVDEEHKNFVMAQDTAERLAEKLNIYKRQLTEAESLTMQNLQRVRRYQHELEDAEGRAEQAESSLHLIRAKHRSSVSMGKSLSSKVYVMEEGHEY

Key:
[1] = biological target: human complement component C9 (human) (UniProt P02748); assay: far-Western, overlay or dot blot; competition: rTs-Pmy (5 µg/mL) pre-incubated with soluble C9 (30 µg/mL, 1:6 w/w) 1 h at 37°C before incubation with the membrane holding C9 (1 µg); detected with mAb 7E2 and IRDye-800CW secondary antibody; both purified
[2] = biological target: human complement component C8, beta chain (human) (UniProt P07358); assay: far-Western, overlay or dot blot; human C8 and C9 (1 µg each) run on SDS-PAGE under reducing conditions, transferred to PVDF, incubated with rTs-Pmy (5 µg/mL in TBS-T) 3 h at 37°C, detected with mAb 7E2; both purified
[3] = biological target: human complement component C9 (human) (UniProt P02748); assay: as above
[4] = biological target: human complement component C8, alpha chain (human) (UniProt P07357); assay: as above
[5] = biological target: recombinant Trichinella spiralis paramyosin (Trichinella spiralis) (UniProt A3RLX8); assay: far-Western, overlay or dot blot; reciprocal: rTs-Pmy (1 µg) transferred to PVDF, incubated with soluble C9 (0.5 µg/mL) 2 h at 37°C, detected with monoclonal anti-C9 antibody; both purified

Substance	binding [1]	binding [2]	binding [3]	binding [4]	binding [5]
recombinant Trichinella spiralis paramyosin (from UniProt A3RLX8)	binds	binds	binds	binds	–
human complement component C9 (from UniProt P02748 22-559)	–	–	–	–	binds

No constants are given. Whether binding was seen depends on the method and setting. A result given as binding can be weak or reduced; the word gives no strength.
